From paper doi:10.1101/2020.11.06.372292
These are yes or no findings as the source states them, for the method shown. In cells and extracts the contact can be indirect. Some entries that bind do so weakly or less than the wild type.

Chains of the proteins cited; added tags and fusions are not shown. Residues count along the entry.
UniProt P35951, residues 22-862: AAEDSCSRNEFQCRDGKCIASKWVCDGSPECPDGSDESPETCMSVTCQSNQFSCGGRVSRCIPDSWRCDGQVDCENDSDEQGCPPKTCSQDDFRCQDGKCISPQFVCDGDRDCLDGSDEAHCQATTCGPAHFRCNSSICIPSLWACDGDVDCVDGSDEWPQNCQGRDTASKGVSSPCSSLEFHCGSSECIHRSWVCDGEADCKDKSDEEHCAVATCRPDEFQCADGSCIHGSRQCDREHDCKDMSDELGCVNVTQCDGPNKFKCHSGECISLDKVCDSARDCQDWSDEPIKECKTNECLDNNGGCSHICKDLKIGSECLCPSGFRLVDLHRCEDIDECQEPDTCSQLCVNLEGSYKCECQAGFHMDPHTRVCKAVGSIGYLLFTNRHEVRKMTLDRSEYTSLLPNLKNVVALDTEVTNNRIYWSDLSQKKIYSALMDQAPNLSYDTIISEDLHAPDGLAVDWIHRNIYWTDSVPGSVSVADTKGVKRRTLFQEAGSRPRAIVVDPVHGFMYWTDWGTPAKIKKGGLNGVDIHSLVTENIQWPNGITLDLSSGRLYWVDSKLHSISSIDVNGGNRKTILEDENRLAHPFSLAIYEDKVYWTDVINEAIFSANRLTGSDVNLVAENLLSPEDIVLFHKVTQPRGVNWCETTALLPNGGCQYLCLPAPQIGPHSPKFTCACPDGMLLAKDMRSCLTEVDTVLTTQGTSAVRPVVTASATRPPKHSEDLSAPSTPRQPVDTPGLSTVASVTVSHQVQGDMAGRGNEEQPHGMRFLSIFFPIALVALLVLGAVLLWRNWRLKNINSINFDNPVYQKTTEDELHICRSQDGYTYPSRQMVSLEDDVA

Molecular target: T1, βPix, endogenous in mouse kidney (mouse (endogenous in kidney tissue)) (UniProt Q9ES28)
T1 sequence: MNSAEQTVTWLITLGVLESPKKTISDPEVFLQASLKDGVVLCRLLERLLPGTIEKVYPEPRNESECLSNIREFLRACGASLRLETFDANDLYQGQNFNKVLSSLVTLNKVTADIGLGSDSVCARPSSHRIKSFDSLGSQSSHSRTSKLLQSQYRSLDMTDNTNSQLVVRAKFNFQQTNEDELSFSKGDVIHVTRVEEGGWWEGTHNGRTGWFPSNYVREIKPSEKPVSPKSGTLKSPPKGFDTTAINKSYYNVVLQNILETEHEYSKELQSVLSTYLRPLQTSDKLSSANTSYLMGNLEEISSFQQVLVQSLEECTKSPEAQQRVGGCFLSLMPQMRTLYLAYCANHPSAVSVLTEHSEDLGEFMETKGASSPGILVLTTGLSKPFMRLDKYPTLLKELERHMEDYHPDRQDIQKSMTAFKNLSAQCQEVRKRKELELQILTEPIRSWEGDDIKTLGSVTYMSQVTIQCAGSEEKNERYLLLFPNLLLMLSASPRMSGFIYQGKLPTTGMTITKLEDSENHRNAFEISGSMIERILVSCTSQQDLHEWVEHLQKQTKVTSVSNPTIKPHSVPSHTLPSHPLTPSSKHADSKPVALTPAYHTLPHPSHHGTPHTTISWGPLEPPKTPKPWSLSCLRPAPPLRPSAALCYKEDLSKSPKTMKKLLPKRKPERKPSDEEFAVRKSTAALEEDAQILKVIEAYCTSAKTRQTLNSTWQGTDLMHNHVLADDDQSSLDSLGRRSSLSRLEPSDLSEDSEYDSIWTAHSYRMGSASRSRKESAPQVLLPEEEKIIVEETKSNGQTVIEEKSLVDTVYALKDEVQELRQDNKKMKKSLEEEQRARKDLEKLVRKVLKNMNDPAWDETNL
Experiment: co-IP

low density lipoprotein receptor (LDLR), endogenous in mouse kidney (from UniProt P35951 22-862)
binding: binds
